Measurements reported in PubChem BioAssay AID1224830 (NIAID, 2016)
The deposit covers about 18,000 reagents; shown is a random part of them. About 2,900 of them (16%) count as active. 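Calls are made per well; low scores hint the gene aids the LPS response, high scores that it dampens it.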 Repeated entries: four replicate wells of each siRNA pool.

- Purpose: 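Genes whose knock-down alters the TNF-alpha reporter response to LPS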 (primary screen)
- System: human THP-1 monocytic leukaemia cells, TNF dual-luciferase reporter clone, PMA-differentiated to macrophage-like cells
- Knock-down reagent: siRNA pool against human genes, 50 nM
- Timing: LPS for 4 h, given about 3 days after siRNA transfection
- Challenge: bacterial LPS (TLR4 ligand), 10 ng/ml
- Measurement: 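TNF firefly reporter luminescence divided by renilla, normalised to the plate median, then turned into a robust z-score for each replicate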
- Reading the numbers: TNF reporter robust z-score: higher = stronger TNF reporter response to LPS
- Call rule: 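Each well counts as active if its z-score is over 2.8 or under -1.5; controls are left without a call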

no.	gene knocked down	TNF reporter robust z-score	Outcome
1	KBTBD8	-0.01	inactive
2	KBTBD8	-0.94	inactive
3	KBTBD8	-0.28	inactive
4	CD80	0.25	inactive
5	CD80	1.99	inactive
6	CD80	-0.74	inactive
7	CD80	0.79	inactive
8	DOCK7	2.24	inactive
9	DOCK7	3.21	active
10	DOCK7	-0.58	inactive
11	DOCK7	0.25	inactive
12	UTS2B	-1.35	inactive
13	UTS2B	-1.08	inactive
14	UTS2B	-0.54	inactive
15	UTS2B	-0.56	inactive
16	RAB11A	-0.21	inactive
17	RAB11A	-0.96	inactive
18	RAB11A	0.3	inactive
19	RAB11A	-0.43	inactive
20	DDX24	1.14	inactive
21	DDX24	1.95	inactive
22	DDX24	0.98	inactive
23	DDX24	1.92	inactive
24	OR5H14	0.07	inactive
25	OR5H14	1.89	inactive
26	OR5H14	-0.55	inactive
27	OR5H14	-0.81	inactive
28	DYNLT3	-0.98	inactive
29	DYNLT3	-0.69	inactive
30	DYNLT3	-0.67	inactive
31	DYNLT3	-1.02	inactive
32	LACC1	0.37	inactive
33	LACC1	1.15	inactive
34	LACC1	0.77	inactive
35	LACC1	-0.39	inactive
36	FABP5	-1.33	inactive
37	FABP5	1.42	inactive
38	FABP5	0.71	inactive
39	FABP5	1.5	inactive
40	INTS10	0.99	inactive
41	INTS10	1.36	inactive
42	INTS10	0.17	inactive
43	INTS10	1.09	inactive
44	USP50	-0.23	inactive
45	USP50	-0.52	inactive
46	USP50	0.93	inactive
47	USP50	0.79	inactive
48	CABLES1	-1.27	inactive
49	CABLES1	-1.31	inactive
50	CABLES1	-1.42	inactive
51	CABLES1	-1.67	active
52	DYRK2	0.52	inactive
53	DYRK2	0.16	inactive
54	DYRK2	0.36	inactive
55	DYRK2	1.45	inactive
56	IFI27L1	-1.13	inactive
57	IFI27L1	-0.32	inactive
58	IFI27L1	0.16	inactive
59	IFI27L1	0.15	inactive
60	SCML4	-1.2	inactive
61	SCML4	-1.26	inactive
62	SCML4	-0.38	inactive
63	SCML4	-0.58	inactive
64	HSPA1A	0.22	inactive
65	HSPA1A	0.88	inactive
66	HSPA1A	1.34	inactive
67	HSPA1A	-0.27	inactive
68	PRH1	-0.61	inactive
69	PRH1	-0.76	inactive
70	PRH1	-1.08	inactive
71	PRH1	-0.83	inactive
72	PPHLN1	2.24	inactive
73	PPHLN1	1.89	inactive
74	PPHLN1	2.14	inactive
75	PPHLN1	3.19	active
76	KCNT2	0.41	inactive
77	KCNT2	0.64	inactive
78	KCNT2	-1.09	inactive
79	KCNT2	-1.42	inactive
80	USP38	-0.65	inactive
81	USP38	0.06	inactive
82	USP38	0.48	inactive
83	USP38	1.16	inactive
84	R3HDML	-0.18	inactive
85	R3HDML	-0.89	inactive
86	R3HDML	-0.36	inactive
87	R3HDML	0.16	inactive
88	FOXI2	0.36	inactive
89	FOXI2	1.38	inactive
90	FOXI2	1.84	inactive
91	FOXI2	2.18	inactive
92	DNAJC5B	-0.3	inactive
93	DNAJC5B	1.28	inactive
94	DNAJC5B	1.77	inactive
95	DNAJC5B	0.29	inactive
96	GALNT17	1.5	inactive
97	GALNT17	0.63	inactive
98	GALNT17	1.13	inactive
99	GALNT17	3.67	active
100	B3GALT4	1.14	inactive
101	B3GALT4	0.23	inactive
102	B3GALT4	-0.14	inactive
103	B3GALT4	1.15	inactive
104	CYP2A6	-1.57	active
105	CYP2A6	-0.93	inactive
106	CYP2A6	-1.46	inactive
107	CYP2A6	-1.12	inactive
108	OSGEP	0.27	inactive
109	OSGEP	1.08	inactive
110	OSGEP	0.36	inactive
111	OSGEP	0.86	inactive

Targets above whose gene name begins with K or k (7):
gene knocked down	TNF reporter robust z-score	Outcome
KBTBD8	-0.01	inactive
KBTBD8	-0.94	inactive
KBTBD8	-0.28	inactive
KCNT2	0.41	inactive
KCNT2	0.64	inactive
KCNT2	-1.09	inactive
KCNT2	-1.42	inactive
